# According to the supplement of paper PMC12067093, “Discovery and optimisation of a covalent ligand for TRIM25 and its application to targeted protein ubiquitination” (Chemical Science, 2025):
# Protein sequences, listed by entry. Tags and fused reporters are not part of them. Lines headed by an entry give the natural chain unless they say otherwise; changes in a name come on top.
# UniProt Q9H0D6: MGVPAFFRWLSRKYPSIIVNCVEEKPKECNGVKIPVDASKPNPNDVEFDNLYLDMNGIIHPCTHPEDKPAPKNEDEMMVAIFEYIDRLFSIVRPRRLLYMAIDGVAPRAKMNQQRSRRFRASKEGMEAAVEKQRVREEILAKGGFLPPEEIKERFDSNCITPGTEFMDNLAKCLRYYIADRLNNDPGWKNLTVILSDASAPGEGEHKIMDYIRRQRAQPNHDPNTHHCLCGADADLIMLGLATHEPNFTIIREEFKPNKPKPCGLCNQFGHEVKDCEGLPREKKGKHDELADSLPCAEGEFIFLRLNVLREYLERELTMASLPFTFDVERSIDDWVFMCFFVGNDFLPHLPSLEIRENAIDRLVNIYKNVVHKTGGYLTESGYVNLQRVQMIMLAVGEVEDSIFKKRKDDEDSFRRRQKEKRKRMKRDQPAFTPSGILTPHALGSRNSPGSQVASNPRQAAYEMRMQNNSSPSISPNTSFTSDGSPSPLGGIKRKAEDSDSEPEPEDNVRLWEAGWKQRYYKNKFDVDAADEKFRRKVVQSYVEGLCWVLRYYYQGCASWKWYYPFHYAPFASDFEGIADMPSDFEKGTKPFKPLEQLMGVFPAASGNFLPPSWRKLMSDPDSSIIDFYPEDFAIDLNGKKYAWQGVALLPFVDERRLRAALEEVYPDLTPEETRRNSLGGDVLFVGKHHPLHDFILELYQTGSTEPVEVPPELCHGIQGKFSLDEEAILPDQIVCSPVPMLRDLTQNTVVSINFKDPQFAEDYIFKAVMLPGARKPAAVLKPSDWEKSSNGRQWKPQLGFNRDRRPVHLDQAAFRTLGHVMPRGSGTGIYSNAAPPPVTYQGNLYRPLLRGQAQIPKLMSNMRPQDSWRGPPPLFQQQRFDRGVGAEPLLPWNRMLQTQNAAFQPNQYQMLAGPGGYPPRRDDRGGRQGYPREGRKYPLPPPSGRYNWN
# UniProt P13010: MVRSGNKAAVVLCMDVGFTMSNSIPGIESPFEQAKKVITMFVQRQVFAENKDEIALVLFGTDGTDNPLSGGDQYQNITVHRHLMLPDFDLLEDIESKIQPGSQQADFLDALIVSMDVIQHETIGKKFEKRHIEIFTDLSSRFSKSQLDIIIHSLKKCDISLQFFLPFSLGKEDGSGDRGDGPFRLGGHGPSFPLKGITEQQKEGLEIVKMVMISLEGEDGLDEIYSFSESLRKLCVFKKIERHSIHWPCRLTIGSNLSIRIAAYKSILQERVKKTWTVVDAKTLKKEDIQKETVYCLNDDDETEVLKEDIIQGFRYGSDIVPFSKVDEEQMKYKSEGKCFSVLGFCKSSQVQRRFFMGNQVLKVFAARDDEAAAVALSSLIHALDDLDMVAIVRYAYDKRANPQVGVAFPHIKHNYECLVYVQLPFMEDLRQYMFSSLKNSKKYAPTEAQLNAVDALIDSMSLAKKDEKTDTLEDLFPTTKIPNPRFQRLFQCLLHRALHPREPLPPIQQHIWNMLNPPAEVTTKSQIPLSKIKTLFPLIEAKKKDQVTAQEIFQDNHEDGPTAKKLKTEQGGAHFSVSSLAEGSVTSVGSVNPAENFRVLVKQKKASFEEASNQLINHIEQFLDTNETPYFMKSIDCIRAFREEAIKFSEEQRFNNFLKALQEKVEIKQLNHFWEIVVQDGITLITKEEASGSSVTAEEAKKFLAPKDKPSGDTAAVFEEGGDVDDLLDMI
# UniProt Q9HAV4: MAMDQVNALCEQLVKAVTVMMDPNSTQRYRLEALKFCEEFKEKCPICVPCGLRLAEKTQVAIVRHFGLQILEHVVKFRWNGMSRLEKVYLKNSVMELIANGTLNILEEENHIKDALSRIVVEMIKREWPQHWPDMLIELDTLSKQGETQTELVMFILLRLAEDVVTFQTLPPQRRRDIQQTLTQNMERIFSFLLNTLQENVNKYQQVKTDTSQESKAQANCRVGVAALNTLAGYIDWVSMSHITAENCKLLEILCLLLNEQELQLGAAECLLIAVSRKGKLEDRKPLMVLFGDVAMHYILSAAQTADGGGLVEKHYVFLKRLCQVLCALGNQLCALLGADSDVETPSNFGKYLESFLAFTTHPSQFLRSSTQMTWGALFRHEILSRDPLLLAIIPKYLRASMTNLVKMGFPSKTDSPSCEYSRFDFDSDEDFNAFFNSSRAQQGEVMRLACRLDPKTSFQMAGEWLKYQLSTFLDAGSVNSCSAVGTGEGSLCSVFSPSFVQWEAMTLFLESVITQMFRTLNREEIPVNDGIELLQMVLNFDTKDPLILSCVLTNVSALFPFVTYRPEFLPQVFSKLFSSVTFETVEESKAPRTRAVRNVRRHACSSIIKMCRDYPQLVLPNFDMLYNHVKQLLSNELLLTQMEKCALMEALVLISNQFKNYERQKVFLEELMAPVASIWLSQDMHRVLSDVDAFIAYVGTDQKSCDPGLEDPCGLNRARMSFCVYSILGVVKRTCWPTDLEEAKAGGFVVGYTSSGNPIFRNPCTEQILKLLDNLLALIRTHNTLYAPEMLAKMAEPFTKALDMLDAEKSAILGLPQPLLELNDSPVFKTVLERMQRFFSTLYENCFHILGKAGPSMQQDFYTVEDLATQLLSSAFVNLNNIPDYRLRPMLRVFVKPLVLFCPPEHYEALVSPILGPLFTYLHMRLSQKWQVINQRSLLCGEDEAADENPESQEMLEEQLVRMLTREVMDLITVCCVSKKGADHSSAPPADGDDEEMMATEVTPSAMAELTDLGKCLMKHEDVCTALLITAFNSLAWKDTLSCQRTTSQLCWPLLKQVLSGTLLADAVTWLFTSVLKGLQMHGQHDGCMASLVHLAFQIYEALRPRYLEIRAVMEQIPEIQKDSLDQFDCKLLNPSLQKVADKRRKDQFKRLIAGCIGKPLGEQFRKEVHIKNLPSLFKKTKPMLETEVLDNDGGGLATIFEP
# UniProt Q9H6S0: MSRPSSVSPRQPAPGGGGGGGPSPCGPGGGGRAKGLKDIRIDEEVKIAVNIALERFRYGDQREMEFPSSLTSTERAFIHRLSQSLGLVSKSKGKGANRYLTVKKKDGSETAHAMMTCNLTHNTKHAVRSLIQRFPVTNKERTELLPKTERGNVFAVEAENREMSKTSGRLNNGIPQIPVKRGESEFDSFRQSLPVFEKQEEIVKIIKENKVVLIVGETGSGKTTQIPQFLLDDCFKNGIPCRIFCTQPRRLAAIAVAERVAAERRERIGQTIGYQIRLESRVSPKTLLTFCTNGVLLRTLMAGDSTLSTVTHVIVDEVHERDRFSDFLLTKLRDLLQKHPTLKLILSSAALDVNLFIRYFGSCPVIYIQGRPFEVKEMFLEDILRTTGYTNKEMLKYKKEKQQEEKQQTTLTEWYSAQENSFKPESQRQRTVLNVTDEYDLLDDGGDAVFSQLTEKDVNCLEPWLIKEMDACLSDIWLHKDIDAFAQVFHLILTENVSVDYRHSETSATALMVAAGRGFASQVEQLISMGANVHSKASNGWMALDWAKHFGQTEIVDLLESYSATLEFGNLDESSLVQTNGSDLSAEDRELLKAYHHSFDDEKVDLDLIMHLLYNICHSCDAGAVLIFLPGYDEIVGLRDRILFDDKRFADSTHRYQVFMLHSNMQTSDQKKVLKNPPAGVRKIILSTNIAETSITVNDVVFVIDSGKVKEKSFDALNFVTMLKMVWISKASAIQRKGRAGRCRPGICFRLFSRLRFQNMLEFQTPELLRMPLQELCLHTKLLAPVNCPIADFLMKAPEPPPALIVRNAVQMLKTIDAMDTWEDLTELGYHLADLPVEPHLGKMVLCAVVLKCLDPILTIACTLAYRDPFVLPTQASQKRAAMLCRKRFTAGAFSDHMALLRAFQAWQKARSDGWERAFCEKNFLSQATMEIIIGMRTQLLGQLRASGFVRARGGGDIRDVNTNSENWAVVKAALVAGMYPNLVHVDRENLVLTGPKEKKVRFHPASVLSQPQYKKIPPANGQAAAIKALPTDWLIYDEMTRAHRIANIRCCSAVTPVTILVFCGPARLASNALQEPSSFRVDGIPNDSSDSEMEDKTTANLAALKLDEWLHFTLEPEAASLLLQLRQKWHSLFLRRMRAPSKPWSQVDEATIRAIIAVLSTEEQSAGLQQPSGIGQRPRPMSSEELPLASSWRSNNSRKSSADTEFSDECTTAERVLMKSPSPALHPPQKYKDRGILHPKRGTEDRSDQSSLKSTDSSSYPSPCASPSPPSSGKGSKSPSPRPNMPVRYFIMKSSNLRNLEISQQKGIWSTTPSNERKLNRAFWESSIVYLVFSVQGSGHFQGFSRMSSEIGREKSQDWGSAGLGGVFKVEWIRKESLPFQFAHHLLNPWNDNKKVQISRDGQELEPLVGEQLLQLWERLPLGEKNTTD
# UniProt Q7Z2W4: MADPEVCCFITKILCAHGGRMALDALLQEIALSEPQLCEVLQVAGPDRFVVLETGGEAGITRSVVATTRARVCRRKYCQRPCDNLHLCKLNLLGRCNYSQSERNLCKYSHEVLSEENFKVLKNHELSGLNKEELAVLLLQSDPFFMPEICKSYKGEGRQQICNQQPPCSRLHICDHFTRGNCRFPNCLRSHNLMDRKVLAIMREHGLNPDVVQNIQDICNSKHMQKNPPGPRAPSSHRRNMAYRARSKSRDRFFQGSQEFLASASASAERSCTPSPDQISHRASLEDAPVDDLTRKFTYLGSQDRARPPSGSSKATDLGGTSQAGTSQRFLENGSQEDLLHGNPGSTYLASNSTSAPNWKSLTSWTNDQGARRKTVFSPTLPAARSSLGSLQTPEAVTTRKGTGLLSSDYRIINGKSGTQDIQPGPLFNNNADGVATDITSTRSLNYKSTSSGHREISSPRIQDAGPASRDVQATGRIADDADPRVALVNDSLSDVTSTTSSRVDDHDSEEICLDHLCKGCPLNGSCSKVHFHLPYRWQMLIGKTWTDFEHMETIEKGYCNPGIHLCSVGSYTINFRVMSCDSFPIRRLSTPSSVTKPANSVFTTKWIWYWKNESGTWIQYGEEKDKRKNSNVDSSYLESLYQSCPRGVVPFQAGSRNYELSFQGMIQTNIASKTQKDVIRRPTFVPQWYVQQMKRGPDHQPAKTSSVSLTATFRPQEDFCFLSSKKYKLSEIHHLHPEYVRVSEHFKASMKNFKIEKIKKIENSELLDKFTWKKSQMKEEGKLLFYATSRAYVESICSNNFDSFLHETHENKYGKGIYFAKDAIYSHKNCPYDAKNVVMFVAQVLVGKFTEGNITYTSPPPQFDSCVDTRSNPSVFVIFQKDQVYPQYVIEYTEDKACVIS
# UniProt Q96QU8: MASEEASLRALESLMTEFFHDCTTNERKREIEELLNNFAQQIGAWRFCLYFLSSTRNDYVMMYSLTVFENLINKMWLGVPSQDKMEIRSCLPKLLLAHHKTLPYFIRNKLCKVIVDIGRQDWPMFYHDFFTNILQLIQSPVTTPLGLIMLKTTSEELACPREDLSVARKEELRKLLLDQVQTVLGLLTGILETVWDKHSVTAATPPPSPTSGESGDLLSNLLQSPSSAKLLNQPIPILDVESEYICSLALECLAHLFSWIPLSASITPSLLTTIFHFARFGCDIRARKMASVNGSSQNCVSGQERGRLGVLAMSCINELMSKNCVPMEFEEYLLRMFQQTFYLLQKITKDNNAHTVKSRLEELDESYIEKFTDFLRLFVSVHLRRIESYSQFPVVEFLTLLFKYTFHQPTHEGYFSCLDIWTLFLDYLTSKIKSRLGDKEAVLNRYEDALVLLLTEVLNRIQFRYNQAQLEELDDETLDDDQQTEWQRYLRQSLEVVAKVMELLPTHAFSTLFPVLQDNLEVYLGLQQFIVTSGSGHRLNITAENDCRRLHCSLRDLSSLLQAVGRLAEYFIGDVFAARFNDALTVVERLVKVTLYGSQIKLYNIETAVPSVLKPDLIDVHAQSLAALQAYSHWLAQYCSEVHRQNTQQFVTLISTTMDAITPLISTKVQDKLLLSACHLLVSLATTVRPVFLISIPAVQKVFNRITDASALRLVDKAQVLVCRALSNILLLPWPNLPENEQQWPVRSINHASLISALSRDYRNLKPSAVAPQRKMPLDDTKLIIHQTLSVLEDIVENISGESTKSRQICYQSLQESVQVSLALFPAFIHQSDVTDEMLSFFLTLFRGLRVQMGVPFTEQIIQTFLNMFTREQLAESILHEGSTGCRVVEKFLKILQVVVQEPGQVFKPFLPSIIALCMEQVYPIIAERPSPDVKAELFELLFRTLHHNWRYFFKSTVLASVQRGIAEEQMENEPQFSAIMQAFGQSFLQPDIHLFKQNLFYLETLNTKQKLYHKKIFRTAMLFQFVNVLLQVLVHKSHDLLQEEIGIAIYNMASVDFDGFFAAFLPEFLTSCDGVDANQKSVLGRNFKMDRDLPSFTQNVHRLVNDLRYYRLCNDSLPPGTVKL
# UniProt P63104: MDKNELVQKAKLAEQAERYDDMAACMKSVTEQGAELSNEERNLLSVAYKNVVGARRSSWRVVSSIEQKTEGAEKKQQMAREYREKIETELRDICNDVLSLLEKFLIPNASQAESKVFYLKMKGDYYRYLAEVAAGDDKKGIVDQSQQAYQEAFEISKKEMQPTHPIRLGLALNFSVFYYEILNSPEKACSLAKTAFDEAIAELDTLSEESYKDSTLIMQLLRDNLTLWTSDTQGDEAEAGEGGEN
# This is one part of the list.
# Compound: CC1Cc2ccccc2N1C(=O)C1CCCN(C1)C(=O)CCl (mixture of isomers) [TRIM25 ligand 11 (diastereomer mixture)]
# Assay: probe-labelled cysteine peptide fold change vs DMSO (competition) (log2 fold change); higher = less target engagement (more negative = stronger competition)
# Conditions: 10 µM; THP-1; incubation time: 4 h
# 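Further: competitive chemoproteomic profiling in live THP-1 cells with an iodoacetamide desthiobiotin (IA-DTB) probe, comparing probe-labelled peptide intensities in compound-treated cells against DMSO-treated controls.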
row,Target,probe-labelled cysteine peptide fold change
1,YRDC_Q86U90_256_FGIIRPGCALESTTAILQQK (UniProt Q86U90),0.0417
2,XRN2_Q9H0D6_296_GKHDELADSLPCAEGEFIFLR (UniProt Q9H0D6),0.0997
3,XRCC5_P13010_249_HSIHWPCR (UniProt P13010),0.141
4,XRN1_Q8IZH2_598_NQHSECLMCWYDRDTEFIYPSPWPEK (UniProt Q8IZH2),0.0745
5,XPO5_Q9HAV4_736_TCWPTDLEEAK (UniProt Q9HAV4),-0.0191
6,ZBTB11_O95625_796_HLGVKPFQCQFCDK (UniProt O95625),-0.121
7,ZC3H11A_O75152_588_GDVASCNTQVAEKPVLTAVPGITR (UniProt O75152),-0.141
8,YTHDC2_Q9H6S0_788_LLAPVNCPIADFLMK (UniProt Q9H6S0),-0.0385
9,ZC3HAV1_Q7Z2W4_272_SCTPSPDQISHR (UniProt Q7Z2W4),0.00382
10,ZC3HAV1_Q7Z2W4_513_VDDHDSEEICLDHLCK (UniProt Q7Z2W4),0.00414
11,XPNPEP1_Q9NQW7_582_ECDWLNNYHLTCR (UniProt Q9NQW7),0.107
12,XRCC5_P13010_346_CFSVLGFCK (UniProt P13010),-0.0826
13,ZC3HAV1_Q7Z2W4_96_CNYSQSER (UniProt Q7Z2W4),-0.127
14,ZC3H11A_O75152_588_SVLTPLRGDVASCNTQVAEKPVLTAVPGITR (UniProt O75152),-0.0522
15,XPO6_Q96QU8_22_ALESLMTEFFHDCTTNER (UniProt Q96QU8),0.0182
16,XPO6_Q96QU8_324_NCVPMEFEEYLLR (UniProt Q96QU8),0.124
17,XPR1_Q9UBH6_62_FFQTCEK (UniProt Q9UBH6),0.00807
18,XPO4_Q9C0E2_1149_SLEEFMANVGGLLCVK (UniProt Q9C0E2),-0.0589
19,ZC3H10_Q96K80_79_NEFIFCHDFQNK (UniProt Q96K80),-0.14

row,Target,probe-labelled cysteine peptide fold change
1,XPO5_Q9HAV4_1157_LIAGCIGK (UniProt Q9HAV4),0.143
2,YARS_P54577_519_LGSISCK (UniProt P54577),0.0269
3,XRN2_Q9H0D6_266_EEFKPNKPKPCGLCNQFGHEVK (UniProt Q9H0D6),-0.101
4,XPO1_O14980_528_DLLGLCEQK (UniProt O14980),0.0248
5,YWHAE_P62258_97+98_LICCDILDVLDK (UniProt P62258),-0.0436
6,ZBTB34_Q8NCN2_402_LHMGITPFVCK (UniProt Q8NCN2),-0.0027
7,XRN2_Q9H0D6_21_KYPSIIVNCVEEK (UniProt Q9H0D6),0.181
8,ZER1_Q7Z7L7_337_RPLQFLGLFENSLCR (UniProt Q7Z7L7),0.0847
9,YARS2_Q9Y2Z4_413_EAPFSEFFLDPGTSVLDTCR (UniProt Q9Y2Z4),0.154
10,YTHDC2_Q9H6S0_472_EMDACLSDIWLHK (UniProt Q9H6S0),0.0772
11,YWHAZ_P63104_25_YDDMAACMK (UniProt P63104),-0.0733
12,XRN2_Q9H0D6_21_KYPSIIVNCVEEKPK (UniProt Q9H0D6),0.147
13,ZC3HAV1L_Q96H79_163_ILLLQNDPCLLPEVCLLYNK (UniProt Q96H79),-0.172
14,YWHAQ_P27348_25_YDDMATCMK (UniProt P27348),-0.119
15,ZCCHC3_Q9NUD5_178_ICFQGDEGACPTR (UniProt Q9NUD5),0.0949
16,ZBTB44_Q8NCP5_31_NDGHFCDITIR (UniProt Q8NCP5),0.21
17,XRCC3_O43542_86_LSLGCPVLDALLR (UniProt O43542),0.151
18,YDJC_A8MPS7_294_AQLAQDGVQLCALDDLDSK (UniProt A8MPS7),0.0361
19,XRCC1_P18887_615_WIYSCNEK (UniProt P18887),-0.00921
